Measured values reported in patent US9744314B2, “Aerosols for sinunasal drug delivery” (PARI Pharma GmbH, priority 2007, dated 2017).

Assay: Sinunasal deposition of nebulised azithromycin formulation in nasal cast model (Example 3)
Parameters: species or system human

SMILES: CC[C@H]1OC(=O)[C@H](C)[C@@H](O[C@H]2C[C@@](C)(OC)[C@@H](O)[C@H](C)O2)[C@H](C)[C@@H](O[C@@H]2O[C@H](C)C[C@H](N(C)C)[C@H]2O)[C@](C)(O)C[C@@H](C)CN(C)[C@H](C)[C@@H](O)[C@]1(C)O [azithromycin]
- Deposited Azithromycin in sinus (Frontal left, 7.5 ml, ostium 0.5 mm): 312 µg
- Deposited Azithromycin in sinus (Frontal right, 7.5 ml, ostium 0.5 mm, 2×0.5 ml of 50 mg/ml, flow rate 1.01/min, 36 Hz): 214 µg
- Deposited Azithromycin in sinus (Maxillary left, 23 ml, ostium 2 mm): 5568 µg
- Deposited Azithromycin in sinus (Maxillary right, 23 ml, ostium 2 mm): 5039 µg
- Deposited Azithromycin in sinus (Sphenoid left, 12 ml, ostium 1 mm): 1908 µg
- Deposited Azithromycin in sinus (Sphenoid right, 12 ml, ostium 1 mm): 1661 µg
